# Primary screen of a compound library

Chains of the proteins cited; added tags and fusions are not shown.
UniProt P9WFT3, whole entry: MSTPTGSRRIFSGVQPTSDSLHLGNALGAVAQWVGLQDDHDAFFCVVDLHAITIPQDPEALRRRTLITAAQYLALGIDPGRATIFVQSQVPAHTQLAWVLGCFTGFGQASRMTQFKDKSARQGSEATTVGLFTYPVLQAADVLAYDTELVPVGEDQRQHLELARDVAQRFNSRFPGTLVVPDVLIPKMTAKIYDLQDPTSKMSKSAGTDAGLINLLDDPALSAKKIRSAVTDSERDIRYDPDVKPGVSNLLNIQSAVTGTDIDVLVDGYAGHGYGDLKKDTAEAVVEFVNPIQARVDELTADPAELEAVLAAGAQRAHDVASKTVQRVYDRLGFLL

Data taken from ChEMBL document CHEMBL3988442, “University of Dundee, Small-Polar-MMV Screening Library” (2021).

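Enzyme assay of tryptophanyl-tRNA synthetase; the read-out is not stated. Target: Tryptophan-tRNA ligase, Mycobacterium tuberculosis (UniProt P9WFT3). Tested at 10 µM. Direction is not recorded; retested compounds ran higher, which suggests that high means inhibition. About 65,000 compounds were tested under these conditions; 0.098% (about 64) showed 50% or more at least once.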

Each number is a percent effect as filed.
The record does not define 0% and 100%; most values in the screen are far below 50% and negative numbers occur (in some assays of this library far below -100).
The compounds are a random part of those screened.

With CN(Cc1cnn(C)c1)C(=O)c1cc2ccccc2c(=O)[nH]1 the screen gave 5.29%. Cc1ccc(-c2nc(CN(Cc3ccco3)C3CCS(=O)(=O)C3)cs2)o1 (stereo not drawn) read 0.8474%. Result for O=C(Cc1ccc(F)cc1)N1CCN(CC(O)C2CC2)CC1 (stereo not drawn) was 0.2138%. COC(=O)c1ccc2ccn(CC3CCCCO3)c(=O)c2c1 (stereo not drawn) read -2.536%. CSCc1cc(C(=O)NC2(C#N)CC2)ccc1F gave 4.002%. CC(=O)Nc1nc(C(=O)N2CCCC2c2noc(C)n2)cs1 (stereo not drawn) gave 1.039%.

For COC[C@@]12CC[C@@H](N3CCOCC3)C[C@H]1CCN(c1cc(C)ccn1)C2 the result was 0.9721%. Result for Cc1ncc2c(n1)CN(CCCc1nc3ccccc3o1)CC2 was 4.814%. CC(=O)N1CCC(c2nccnc2Nc2cnccn2)CC1 read -4.28%. With Cc1nc(C)c(C(=O)N2Cc3ccccc3OCC2Cn2ccnc2)s1 (stereo not drawn) the screen gave 4.44%. For COc1ccc(F)cc1C[S+]([O-])CC(=O)NCc1ccccc1 (stereo not drawn) the result was 2.062%. CC1CCc2nc(O)c(C(=O)NCCc3cccs3)cc2C1 (stereo not drawn) read -0.5942%.

CS(=O)(=O)N1C[C@H]2CCC[C@@]2(COc2ccccn2)C1 read -3.734%. For CC(=O)Nc1ccc(-c2ccccc2CCN)cc1 the result was 0.2138%. Result for Cc1ccoc1C(=O)N1CC[C@H]2[C@@H]1CCC(=O)N2c1cccnc1 was -1.895%. For CCN(CC)S(=O)(=O)c1ccc(CNc2cc(C)nc(C)n2)cc1 the result was -2.084%. For Cc1noc(-c2cnc(NC(C)C)nc2-c2ccco2)c1C the result was -7.161%. With CC(C)N1CCCC(Cc2nccnc2Cl)C1 (stereo not drawn) the screen gave -3.312%.

CCc1nnc(CN2CCCCC2Cn2nc(C)nc2C)o1 (stereo not drawn) read 0.3895%. Result for O=C(NCCn1ccnc1)c1cncc(Br)c1 was 8.978%. Result for O=C(CC1CC1)NCc1cn2c(n1)CN(Cc1cccc(F)c1)CC2 was -6.996%. Cc1noc(C)c1CN1CC[C@H]2C[C@@H](c3ccncn3)O[C@@H]2C1 gave 3.575%. Cc1nc(C2CCN(S(=O)(=O)c3ccc4c(c3)CCC4)CC2)n[nH]1 gave -1.312%. O=C(Nc1cc[nH]n1)c1ccc(COCC(F)(F)F)cc1 gave -28.65%.

NC(=O)c1ccccc1-n1cc(-c2cccc(C(=O)O)c2)cn1 read -10.5%. Result for CSCCC(O)C(=O)N(C)Cc1cnn(-c2ccc(F)cc2)c1 (stereo not drawn) was -1.941%. Result for Fc1ccc(CN2CCCC(c3cc4ncccc4[nH]3)C2)cc1 (stereo not drawn) was -7.161%. With CC1CN(C(=O)c2cnn(-c3ccccn3)c2C(C)C)CC(C)(C)O1 (stereo not drawn) the screen gave 1.729%. O=C(NCCn1cccc1)C1CCCN(C2CCCC2)C1 (stereo not drawn) gave -3.391%. Result for CN(CCCOc1ccccc1)C(=O)CN1CCc2cncnc2C1 was 3.021%.

Result for Cc1nn(C)c(C)c1C1CCCN1Cc1nc(-c2ccco2)no1 (stereo not drawn) was -2.235%. CC(NC1CCN(C(=O)C2CCCCC2)CC1)c1nccs1 (stereo not drawn) read -0.9372%. Cc1c(CN2CCCC2c2cncc(CN3CCCC3)n2)cnn1C (stereo not drawn) read 0%. Result for Cc1cc(NC(=O)C(C)C)n(-c2nc(C)c(C)c(=O)[nH]2)n1 was -0.2472%. For O=C(C1CCCC1)N1CCCC2(CCN(c3cnccn3)CC2)C1 the result was -2.183%. Result for CC(=O)Nc1ncc(S(=O)(=O)Nc2cccc(C)c2)s1 was 0.7772%.

With CCOC(=O)c1sc(NC(=O)C(C)(C)C)c(C#N)c1C the screen gave -1.434%. CSCC(C)(O)CNc1cccc(F)c1C(C)=O (stereo not drawn) gave -4.425%. Result for CSCc1nc(C(C)(C)NC(=O)OC(C)(C)C)no1 was -2.131%. CS(=O)(=O)c1ccc(C(=O)NCCNc2ncccn2)cc1 gave -2.18%. For Cc1cnn(CC2CCCN2Cc2nnsc2Cl)c1 (stereo not drawn) the result was 1.652%. For COCC[C@]1(O)CCN(S(=O)(=O)c2ccc(C)cc2OC)C[C@H]1C the result was 1.053%.

With Cn1ncc2c(=O)[nH]c(CN(Cc3cccc(F)c3)C3CC3)nc21 the screen gave -1.519%. COCCN1CCN(C(=O)C[C@@H]2C[C@@H](C(C)C)[C@H](CO)C=C2C)CC1 gave -7.154%. With CC(C)Oc1ccc(-c2csc(Cn3ccc(=O)[nH]c3=O)n2)cc1 the screen gave -0.55%. For CCC(CC)c1cc(CNC(=O)N2CCCC(N(C)C)C2)on1 (stereo not drawn) the result was -1.006%. Result for CCCN(C(=O)CS(=O)(=O)c1ccccc1)c1cccc(C)c1 was -0.09911%. With CC(C)OCCS(=O)(=O)NC1CCN(C2CCCC2)C1 (stereo not drawn) the screen gave 6.311%.

Result for CCCc1n[nH]c(C2CN(C(=O)CCn3nc(C)cc3C)CCO2)n1 (stereo not drawn) was 0.8602%. Result for Cc1cccc(NC(=O)C(C)Oc2ccc3c(c2)OCO3)n1 (stereo not drawn) was 3.584%.

For reference, 4 entries once more:

Compound,Percent Effect
CN(CCCOc1ccccc1)C(=O)CN1CCc2cncnc2C1,3.021
Fc1ccc(CN2CCCC(c3cc4ncccc4[nH]3)C2)cc1 (stereo not drawn),-7.161
CS(=O)(=O)c1ccc(C(=O)NCCNc2ncccn2)cc1,-2.18
Cc1ccoc1C(=O)N1CC[C@H]2[C@@H]1CCC(=O)N2c1cccnc1,-1.895